Results taken from US5342604A (The Dow Chemical Company, priority 1992, dated 1994).

Tested on: CC-46 monoclonal antibody
Test: Complexes attached per antibody (conjugation of Y-90 complex)
Settings: 40:1 complex to antibody, NaCNBH3

| Compound | average complexes per antibody |
| --- | --- |
| Nc1cc(CN(CCN(CC(=O)O)CC(=O)O)CC(=O)O)c(O)c(CN(CCN(CC(=O)O)CC(=O)O)CC(=O)O)c1 [Example 12] | 5.4 complexes per antibody |
| Nc1ccc(CC(CN(CCN(CC(=O)O)CC(=O)O)CC(=O)O)N(CC(=O)O)CC(=O)O)cc1 (centres unmarked) [ABDTPA, 1-(p-aminobenzyl)diethylenetriaminepentaacetic acid] | 5.0 complexes per antibody |
